Our source for the binding signal values is publication PMC7819943, “Rice protein-binding microarrays: a tool to detect cis-acting elements near promoter regions in rice”.

Amino acid sequences for entries named in this document (tags omitted).
UniProt Q0JBA9, entry or part of it: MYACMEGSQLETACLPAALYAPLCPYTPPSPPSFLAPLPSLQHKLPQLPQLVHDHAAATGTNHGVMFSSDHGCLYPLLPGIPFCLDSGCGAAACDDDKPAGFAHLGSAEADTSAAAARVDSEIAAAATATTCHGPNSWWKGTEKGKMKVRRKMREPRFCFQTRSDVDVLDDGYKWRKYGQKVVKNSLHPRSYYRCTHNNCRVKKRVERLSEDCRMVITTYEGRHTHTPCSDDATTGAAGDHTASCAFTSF

The other results are listed elsewhere or left out.

In the test the target is OsWRKY34 (Oryza sativa, UniProt Q0JBA9 1-250). Kind of test: protein-binding microarray (RPBM); PBS, 2% BSA, 51.3 ng/ul salmon testes DNA, 50 uM zinc acetate, 200 nM TF, 25 C, 1 h; high values mean tight binding. The note with it: protein: recombinant; tags: N-terminal polyhistidine and DsRed monomer fusion (pET32a); label: CyDye5-dUTP incorporated in the synthesized complementary strand; 3' TTTTT single-stranded linker to array surface; dsDNA, one strand shown. In short, it runs like this: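 The binding signal is fluorescence intensity per feature, in arbitrary units, read on an Axon 4000B scanner. Polyhistidine- and DsRed-tagged transcription factors (N-terminal fusions) from E. coli BL21-CodonPlus were purified on Ni–NTA and applied at 200 nM for 1 h at 25 °C to a double-stranded, BSA-blocked custom Agilent array in buffer with 50 µM zinc acetate.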
As to “TGGCCCACTGTCAGCTATCTATTTCTCACCATCCTCAGTTCGGAGTCACCTAGTGCAG”, the binding signal is 11300 fluorescence intensity (a.u.).
With “TACAGTTTTCCCACAACCACTTTTTACCATCTGAATGATACGGAGTCACCTAGTGCAG”, the binding signal is 8170 fluorescence intensity (a.u.).
As to “TGTGATTTGGTACATGCATGTTCTACTAAGTCTGTTTCTACGGAGTCACCTAGTGCAG”, the binding signal was 8780 fluorescence intensity (a.u.).
In the case of “GATGGGGTGGCTTAGTGACGAAAAAAAGGTGTTCGTTATTCGGAGTCACCTAGTGCAG” it was 9090 fluorescence intensity (a.u.); in that of “ACCCACCCACCTGGCACCAATCTCGATGCAAATCCAACGGCGGAGTCACCTAGTGCAG”, 9630 fluorescence intensity (a.u.).
In the case of “GGCCTGCTGCTGCTTTGGGTGGGCTGCCTCGTCACTAATCCGGAGTCACCTAGTGCAG” it was 12300 fluorescence intensity (a.u.).
Next, “CAATGGGGTTCCTATATTTTGTTTCCTTCCTTCATGCCGACGGAGTCACCTAGTGCAG”: 8100 fluorescence intensity (a.u.); “GATCTCCCCAGCGCCACCTGCTCTCTTTGACTTGCAAACACGGAGTCACCTAGTGCAG”: 8390 fluorescence intensity (a.u.); “CATCCTTGCACTGGCCATCCCTTCCCCTACAGCTCTACTTCGGAGTCACCTAGTGCAG”: 8360 fluorescence intensity (a.u.).
Consider “TGGTGGGTGCCTTGACATCATGTGACTTTGATTGTTCTCCCGGAGTCACCTAGTGCAG”, for which the binding signal was 8430 fluorescence intensity (a.u.).
Turning to “CGCCACGTGTCCTCATCTCGACGGTCGCACGTTCCCACCCCGGAGTCACCTAGTGCAG”, the binding signal is 8960 fluorescence intensity (a.u.).
Next, “AAATCCCCTTGTTACCGCGCGTTGTTTGGTTGTACCGCGCCGGAGTCACCTAGTGCAG”: 16600 fluorescence intensity (a.u.); “GACATCCTGCACTTCATCTATCTTCTAATCTGGACCATTTCGGAGTCACCTAGTGCAG”: 8450 fluorescence intensity (a.u.); “TCGAAATATTTGACACCGTTGACTTTTTAGCACATGTTTGCGGAGTCACCTAGTGCAG”: 35300 fluorescence intensity (a.u.).
With “CATGCGGGTCCCACACATGTTTTTTTTATTTTTTATATTTCGGAGTCACCTAGTGCAG”, the binding signal is 8300 fluorescence intensity (a.u.).
In the case of “ATCTGCGTCTCCGCATCATCCAGCGCCTGCGTCTCTCCGTCGGAGTCACCTAGTGCAG” it was 8900 fluorescence intensity (a.u.); in that of “TATATTAACAAGTAATTTCTGTTTTGCATTCTTTTGTTCACGGAGTCACCTAGTGCAG”, 8680 fluorescence intensity (a.u.).
Take “AATAACTAATTACATGGATTGCGACTACTTTGCGAGACGACGGAGTCACCTAGTGCAG”: the binding signal is 8290 fluorescence intensity (a.u.).
For the sequence “CGCTACTCCTATCCTATCACTGCACGCGTGGGCCAGCCGCCGGAGTCACCTAGTGCAG”, the binding signal is 8700 fluorescence intensity (a.u.).
Next, “CAACGTTTTTATATGGATTTGTTTGGCCAATTGTCACCACCGGAGTCACCTAGTGCAG”: 9240 fluorescence intensity (a.u.).
On to “CTTCCATGTGCTTCGCTTGACATTTTTTTTTCTTCTTCTTCGGAGTCACCTAGTGCAG”, for which the binding signal was 8210 fluorescence intensity (a.u.).
Next, “TTAGCAAGATATGTAACCTTTATTTGACTAGTCATGCAATCGGAGTCACCTAGTGCAG”: 12300 fluorescence intensity (a.u.); “ACTGCTAGCTGGTTAATACATTTTGCATGTTCTATTGCATCGGAGTCACCTAGTGCAG”: 11000 fluorescence intensity (a.u.); “CCGCCGCCGCCGCCGCCTTCCGCCGCCTCGAACCGGACCACGGAGTCACCTAGTGCAG”: 9400 fluorescence intensity (a.u.).
Next, “TAAATTTTACATGTTGATGATTTGTTTTTACTTTTTTTCACGGAGTCACCTAGTGCAG”: 9570 fluorescence intensity (a.u.); “ATTATTGTCGTCCTTGTCACCAGTGTTGTCGCCGCTCATACGGAGTCACCTAGTGCAG”: 12400 fluorescence intensity (a.u.).
Next, “TACGCCTGATTGGATCCCCACCCCTATCTCCACTGACTGTCGGAGTCACCTAGTGCAG”: 10400 fluorescence intensity (a.u.); “TTTTGTGTGTGTCCTGATACTGGGAATCTGCAATCTACATCGGAGTCACCTAGTGCAG”: 11200 fluorescence intensity (a.u.).
As to “TTTCATTCTCTTGTTCCTCATGTCTCATGATGCACCTTGCCGGAGTCACCTAGTGCAG”, the binding signal is 10900 fluorescence intensity (a.u.).
Turning to “TAGTATTGCTGTATTGCACGTTGAACAGACAATCTTTCCTCGGAGTCACCTAGTGCAG”, the binding signal is 8900 fluorescence intensity (a.u.).
In the case of “AAACCACCTCAACCACAATTTCTCATGGTCAGTTTCACTACGGAGTCACCTAGTGCAG” it was 9300 fluorescence intensity (a.u.); in that of “GGGCCCACGTAGCTCGACCCCACCTGTCACTCGCTCACACCGGAGTCACCTAGTGCAG”, 8310 fluorescence intensity (a.u.).
For “ACGGTCAGCGAATTCCGGAAGCCCATTACATCACACCCATCGGAGTCACCTAGTGCAG”, the binding signal was 8160 fluorescence intensity (a.u.).
For the sequence “TATTTGGGCTGGACCAAGAACTACCGTTGACTTTGGTTGGCGGAGTCACCTAGTGCAG”, the binding signal is 16300 fluorescence intensity (a.u.).
On to “TCGTTCCTCTTCAGCACTACCACCATTTTGGACAAGGCGCCGGAGTCACCTAGTGCAG”, for which the binding signal is 8310 fluorescence intensity (a.u.).
As to “AGTGGCAGTGTTTGACGGGATTTCTAAAAATTATATATATCGGAGTCACCTAGTGCAG”, the binding signal was 8290 fluorescence intensity (a.u.).
As for “CACAGTGATCCTCTATTATGCTTTGCTGGTGTGCTTTTGACGGAGTCACCTAGTGCAG”, the binding signal was 9310 fluorescence intensity (a.u.).
Next, “CGTCGCGGCGTGCATCTCCTCACCAGCTCCACACCTCGCTCGGAGTCACCTAGTGCAG”: 11500 fluorescence intensity (a.u.); “GATTGCACTTATTTTGAGACGGGTGTAGTATTATATTTTCCGGAGTCACCTAGTGCAG”: 10100 fluorescence intensity (a.u.).
Next, “TATATAACTCCTTCACTTTGGACTCGTAAAGCTCACACAACGGAGTCACCTAGTGCAG”: 8540 fluorescence intensity (a.u.); “CAAGTTCCTGTAAATTCAGAACAAGTCAACGCCGGTCAACCGGAGTCACCTAGTGCAG”: 8520 fluorescence intensity (a.u.).
In the case of “GTTTGCTCATCTCATTCGTCGCGACCCCTCGCCTCTGTATCGGAGTCACCTAGTGCAG”, the binding signal was 9560 fluorescence intensity (a.u.).
